According to patent US7601687B2, “Mechanism for identifying drugs for the treatment of type II diabetes” (BioCrine AB, priority 2006, dated 2009):
At least one structure is not confirmed: it was looked up by name or label, or the drawing left a doubt.

Tests used:
PKB/c-Akt = PKB/c-Akt Ser473 phosphorylation and PKB activity in HIT cells; type: cell-based, hamster; conditions: FIG. 7E; PKB activity 10 min after start of glucose stimulation
Experimental: Phosphorylated PKB/c-Akt was analyzed by employing the PhosphoPlus Akt(Ser473) Antibody Kit (New England Biolabs) according to the manufacturer's instructions. Briefly, HIT cells were cultured as described above. […] Following centrifugation of the lysate for 20 min at 14,000×g and 4° C., aliquotes of the supernatant containing 200 μg protein were separated by SDS-PAGE over a 7.5% polyacrylamide gel. Proteins were electro-transferred onto PVDF-membrane (Immobilon-P, Millipore) overnight at stabilized 125 mA. Immunoblotting was performed with either rabbit polyclonal Phospho-Akt(Ser473) antibody or with rabbit polyclonal […] antibody and HRP-conjugated secondary antibodies. For detection the membrane was incubated with LumiGLO containing peroxide and exposed to X-ray film.
Analysis of PKB/Akt activity was performed employing the Akt1-PKBα e Immunoprecipitation Kinase Assay Kit (Upstate Biotech.) according to the manufacturer's instructions. Lysates of HIT cells containing 1 mg of protein were subjected to immunoprecipitation. The immunoprecipitate was used for PKB/Akt kinase assay using γ[^32P]-ATP and Akt/SGK-specific substrate peptide. Phosphorylated substrates were blotted onto phosphocellulose P81 paper and analyzed by LSC.

βGK mRNA = βGK mRNA steady-state levels (comparative RT-PCR) in cultured pancreatic islets / insulin-producing cells; type: cell-based, rat; conditions: 10 μM nifedipine, 16.7 mM glucose, islet cells (FIG. 3B)
Experimental: Insulin-producing HIT-T15 cells were obtained from ATCC. HIT cells were reported to show glucose responsiveness at subphysiological concentrations between 0.1 and 2 mM (Sharma et al., 1995). HIT cells were grown in RPMI 1640 medium supplemented with 100 units/ml penicillin, 100 μg/ml streptomycin, 2 mM glutamine and 10% fetal calf serum at 5% CO2 and 37° C. Pancreatic islets were isolated from normally fed male Wistar rats and from mice by collagenase digestion. Isolated islets were incubated overnight at 5% CO2 and 37° C. in RPMI 1640 medium, supplemented as described above. Transfection of HIT-T15 and islet cells was performed overnight by the lipofectamine technique in RPMI 1640 medium, without serum and antibiotics. […]
RNA Analysis Levels of βGK mRNA were analyzed by RNase-protection assays and comparative RT-PCR. […] Quantification of the protected complexes was performed by phosphorimaging. […] Levels of μGK mRNA were analyzed by RT-PCR using primers 5′-[…]-3′(SEQ ID NO: 1) and 5′-[…]-3′(SEQ ID NO: 2) for characterizing μGK mRNA in HIT cells and primers 5′-[…]-3′(SEQ ID NO: 3) and 5′-[…]-3′(SEQ ID NO: 4) for μGK mRNA in rat and mouse pancreatic islets and islet cells. Levels of μ-actin mRNA were analyzed by RT-PCR using primers 5′-[…]-3′(SEQ ID NO: 5) and 5′-[…]-3′(SEQ ID NO: 6). […] PCR products were separated on a 6% polyacrylamide sequencing gel and analyzed by phosphorimaging. […]

[1] = system: rat insulin-I gene promoter; assay: On-line monitoring of insulin promoter-driven DsRed/GFP expression (prIns1.DsRed) in transfected HIT-T15 cells and islet cells; type: cell-based, hamster (HIT-T15), rat (islet cells); conditions: 5 mU/ml insulin; 25 μM LY294002, 10 nM rapamycin, 400 nM AC, 100 μM HNMPA-(AM)3
From the text: Construction of prIns1.GFP has been described earlier (Leibiger et al., 1998a). Vector prIns1.DsRed was generated by exchanging the EGFP-expression cassette versus the DsRed-expression cassette obtained from pDsRed1-1 (Clontech). Plasmid prβGK.GFP (i.e. prβGK-278.GFP) was generated by exchanging the CAT-SV40pA-expression cassette of prβGK-278.CAT (Leibiger et al., 1994a) versus the EGFP-bGHpA-expression cassette obtained from pRcCMVI.GFP (Moede et al., 1999). […] All vector constructions were verified by DNA sequence analysis. Constructs for expression of the human Insulin Receptor A and B types, pCMVHIR(A) and pCMVHIR(B) and the control plasmid pCMVstop were kindly provided by Dr. A. Ullrich (Max-Planck-Institute for Biochemistry, Martinsried, Germany). Expression constructs pCMV5.PKBα, pCMV5.PKBαΔ308/437, pCMV5.PDK1 and pCMV5.PDK1-antisense were kindly provided by Drs. P. Cohen and D. R. Alessi (MRC Phosphorylation Unit, University of Dundee, UK). […]
Detection of fluorescence by digital imaging fluorescence microscopy was performed as described previously (Leibiger et al., 1998a; Leibiger et al., 1998b). […] Fluorescence imaging was performed with a cooled charged-coupled device camera (CH250 with KAF 1400, Photometrics, Tucson, Ariz.) connected to an imaging system (Inovision) with fluorescence excitation from a SPEX fluorolog-2 CM1T11I spectrofluorometer (Spex Industries). […]

rat insulin-I promoter = assay: Insulin promoter-driven DsRed expression in co-transfected human islet cells; type: cell-based; conditions: 400 nM AC, 10 nM rapamycin, low concentrations: 50 nM wortmannin, 25 μM LY 294002 (FIG. 15)
Experimental: (§1) Data are presented as the ratio of fluorescence obtained at minutes 240 and 60 and represent mean values ±S.E. (n=11).
(§2) Detection of fluorescence by digital imaging fluorescence microscopy was performed as described previously (Leibiger et al., 1998a; Leibiger et al., 1998b). Briefly, transfected cells were grown on 24-mm glass coverslips. After stimulation the coverslips were placed into a perifusion chamber which was mounted on an inverted microscope (Zeiss Axiovert 135TV). Temperature was kept at 37° C. and the cells were perfused with RPMI 1640 medium. The objective lens used was a Zeiss-Fluar ×40/1.30 oil Imm Korr. Fluorescence imaging was performed with a cooled charged-coupled device camera (CH250 with KAF 1400, Photometrics, Tucson, Ariz.) connected to an imaging system (Inovision) with fluorescence excitation from a SPEX fluorolog-2 CM1T11I spectrofluorometer (Spex Industries). The following filter-settings were used: for GFPs65T: excitation at 485 nm, a 505 nm dicroic mirror and an emission band-pass filter of 500-530 nm; for DsRed: excitation at 558 nm, a 565 nm dicroic mirror and a 580 nm long-pass filter for emission
(§3) On-line monitoring was initiated 60 min following the start of stimulation and the 60-min value of GFP- or DsRed-fluorescence was set to 1.0. Cells to be monitored were chosen randomly at minute 60 from six fields of vision and fluorescence was monitored up to minute 240. By overlaying the fluorescence and phase-contrast images, the position of cells on the coverslip could be checked. Fluorescence intensity was calculated by using the ISee-software for UNIX (Inovision Corporation).

[2] = system: PI3K activity in the IR-A immunoprecipitate; assay: PI3K activity in vitro in GFP-immunoprecipitates from insulin-stimulated HIT cells overexpressing IR-A~GFP; type: biochemical, hamster; conditions: after 150 nM insulin for 5 min
rat βGK promoter = assay: βGK promoter-driven GFP expression in co-transfected human islet cells; type: cell-based; conditions: 100 μM HNMPA-(AM)3, higher concentrations: 150 nM wortmannin, 100 μM LY 294002 (FIG. 15)
Experimental: as §1
as §2, with “The following filter-settings were used: for GFPs65T: excitation at 485 nm, a 505 nm dicroic mirror and an emission band-pass filter of 500-530 nm; for DsRed: excitation at 558 nm, a 565 nm dicroic mirror and a 580 nm long-pass filter for emission” left out
as §3

[3] = system: PI3K activity in the IR-B immunoprecipitate; assay: PI3K activity in vitro in GFP-immunoprecipitates from insulin-stimulated HIT cells overexpressing IR-B~GFP; type: biochemical, hamster; conditions: after 150 nM insulin for 5 min

Compound | effect on glucose-induced activation of PKB (PKB/c-Akt) | effect on glucose-stimulated up-regulation of βGK mRNA levels (βGK mRNA) | effect of inhibitor on insulin-stimulated insulin gene transcription / insulin promoter activity [1] | effect of inhibitor on insulin-stimulated insulin gene expression (rat insulin-I promoter) | wortmannin concentration inhibiting PI3K activity in the IR-A immunoprecipitate [2] | effect of inhibitor on insulin-stimulated glucokinase transcription (rat βGK promoter) | wortmannin concentration inhibiting PI3K activity in the IR-B immunoprecipitate [3]
COC(=O)C1=C(C)NC(C)=C(C(=O)OC)C1c1ccccc1[N+](=O)[O-] [nifedipine] | abolished | abolished | – | – | – | – | –
CO[C@H]1C[C@@H]2CC[C@@H](C)[C@@](O)(O2)C(=O)C(=O)N2CCCC[C@H]2C(=O)O[C@H]([C@H](C)C[C@@H]2CC[C@@H](O)[C@H](OC)C2)CC(=O)[C@H](C)/C=C(\C)[C@@H](O)[C@@H](OC)C(=O)[C@H](C)C[C@H](C)/C=C/C=C/C=C/1C [rapamycin] | – | – | abolished | sensitive | – | – | –
COC[C@H]1OC(=O)c2coc3c2[C@@]1(C)C1=C(C3=O)[C@@H]2CCC(=O)[C@@]2(C)C[C@H]1OC(C)=O [wortmannin] | – | – | – | inhibited by low concentrations | lower nanomolar range | inhibitory effect | higher concentrations
